According to publication PMC9491610:
Positions count from the first letter of the chain named. These are yes or no findings as the source states them, for the method shown. Binding seen in cells or lysates may run through a third protein. Some binding calls cover weakened binding; strength is not graded here.

Amino acid sequences for entries named in this document (tags omitted). A change or cut given only in a name is not applied to a line headed by its entry.
UniProt P09733: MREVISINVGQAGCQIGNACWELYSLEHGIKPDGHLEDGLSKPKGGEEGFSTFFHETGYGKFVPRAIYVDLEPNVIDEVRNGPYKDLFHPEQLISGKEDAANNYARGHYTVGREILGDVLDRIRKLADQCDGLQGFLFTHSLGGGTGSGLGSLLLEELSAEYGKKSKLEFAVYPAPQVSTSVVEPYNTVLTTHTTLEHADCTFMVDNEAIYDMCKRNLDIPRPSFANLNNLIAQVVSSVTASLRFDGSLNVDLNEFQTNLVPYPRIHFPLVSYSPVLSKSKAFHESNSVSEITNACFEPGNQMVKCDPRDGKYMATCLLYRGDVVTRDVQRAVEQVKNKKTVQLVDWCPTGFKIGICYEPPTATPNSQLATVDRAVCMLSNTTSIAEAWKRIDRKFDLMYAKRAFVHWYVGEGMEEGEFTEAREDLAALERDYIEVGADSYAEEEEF

What was measured:
Experiment in all cases: co-IP; Stu2-HA precipitated with anti-HA magnetic beads from 67 mg cryo-milled yeast extract in PEM buffer (80 mM PIPES, 1 mM EGTA, 1 mM MgCl2, pH 6.8); precipitate blotted with anti α-tubulin (anti-Tub1) as surrogate for αβ-tubulin
[1] = molecular target: T1, Stu2-K252,469,870R-3xHA (S. cerevisiae) (UniProt P46675)
T1 sequence: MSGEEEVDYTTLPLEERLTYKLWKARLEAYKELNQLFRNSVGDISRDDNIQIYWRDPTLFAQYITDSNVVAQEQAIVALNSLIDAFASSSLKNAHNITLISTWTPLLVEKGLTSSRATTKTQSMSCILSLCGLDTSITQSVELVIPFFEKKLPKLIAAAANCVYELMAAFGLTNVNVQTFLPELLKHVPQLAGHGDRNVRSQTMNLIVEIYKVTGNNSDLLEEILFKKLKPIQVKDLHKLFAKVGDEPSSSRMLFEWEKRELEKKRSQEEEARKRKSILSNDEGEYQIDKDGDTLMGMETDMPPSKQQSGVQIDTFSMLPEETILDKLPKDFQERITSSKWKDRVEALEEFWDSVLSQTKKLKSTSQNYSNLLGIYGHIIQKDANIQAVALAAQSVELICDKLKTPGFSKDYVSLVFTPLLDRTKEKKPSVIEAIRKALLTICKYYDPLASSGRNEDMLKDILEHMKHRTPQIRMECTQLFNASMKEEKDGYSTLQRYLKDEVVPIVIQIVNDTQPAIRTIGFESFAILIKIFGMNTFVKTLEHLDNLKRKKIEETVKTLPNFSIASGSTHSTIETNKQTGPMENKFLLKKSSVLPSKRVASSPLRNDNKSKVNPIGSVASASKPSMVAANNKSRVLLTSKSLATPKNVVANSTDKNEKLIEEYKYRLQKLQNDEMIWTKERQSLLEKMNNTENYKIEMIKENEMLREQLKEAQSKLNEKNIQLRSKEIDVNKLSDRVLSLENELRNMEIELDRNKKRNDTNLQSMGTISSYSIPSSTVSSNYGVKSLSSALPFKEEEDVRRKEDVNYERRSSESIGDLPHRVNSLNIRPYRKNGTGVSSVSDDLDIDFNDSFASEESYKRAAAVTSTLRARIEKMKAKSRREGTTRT

[2] = molecular target: T2, Stu2-K469R-3xHA (S. cerevisiae) (UniProt P46675)
T2 sequence: T1 sequence with R252K, R870K

[3] = molecular target: T3, Stu2-K252,469,870Q-3xHA (S. cerevisiae) (UniProt P46675)
T3 sequence: T1 sequence with R252Q, R469Q, R870Q

Measured: binding

αβ-tubulin heterodimer (from UniProt P09733 1-447; P02557 1-457) (complex)
binds: [1] | [2] | [3]
